Data reported in the supplement of paper PMC10338343.
± gives the standard deviation. This is a selection; strong and weak results do not stand in their true shares. Many entries were measured with a wide error.

Tested on: MILI (PIWIL2) piRISC loaded with L1MC piRNA (26 nt)
Assay: pre-steady-state target cleavage rate (min^-1); MIWI and MILI are mouse PIWI proteins and EfPiwi is from a freshwater sponge; tags in brackets are library labels; higher = faster piRNA-guided slicing of the target
Conditions: guide: L1MC piRNA 5'p-UAACUAAAUACUAUGCAAGCUGUAGG; auxiliary factor: none (no GTSF1)
Outline: (§1)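 A transcribed, DNA-blocked target RNA library (0.1 nM) and 1 nM active affinity-purified piRISC bearing one synthetic guide were incubated in HEPES–potassium acetate buffer at 33 °C for 0–8 or 0–960 min, either with or without 500 nM GTSF1 partner protein. Uncleaved targets were sequenced, normalised to depth and to weakly complementary targets, and pooled over three trials, with k3 capped at 0.0001 min^-1. The pre-steady-state cleavage rate was derived with a burst-and-steady-state fit.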

Sequence	pre-steady-state target cleavage rate
UCCUCCUACAGCUUCGAUAGUAUUUUCAAA	0.000675 ± 0.0066
UCCUGGAUCAGCUUGCAUAGAUUUUACAAA	0.000971 ± 0.0059
UCCUGCUACAGCUUGCAUAGAUUUUAGAAA	0.000462 ± 0.0086
UCCUGGUACAGCUUGCAUACAAUUUACAAA	0.000991 ± 0.0061
UCCUCCUACAGCUUGCAUAGUAUUAAGAAA	0.00143 ± 0.0042
UCCUGGAUGUCGAUGCAUAAGUAUUUAGUUA	0.000436 ± 0.011
UCCUGGUACACGUUGCAUAGUAUUUAGAAA	0.00187 ± 0.0047
UCCUGGAUGACGAUGCAUAGUAUUUAGUUA	0.00304 ± 0.0031
UCCUGCUACAGCUUGCAUAGAAUUUUCAAA	0.00113 ± 0.0069
UCCUGGAUGAGCUUGCAUAGUAUUUAUUUA	0.002 ± 0.0046
UCCUGGUACAGCUUGCAUAGUAUUUAGCUA	0.00104 ± 0.0094
UCCUGGAUGAGCUUCCAUAGUAUUUAGAUA	0.000323 ± 0.021
UCCUGGUACAGCAAGCAUAGUAUUUUCAAA	0.000867 ± 0.0097
UCCUCCUACAGCUUGCAUAGUAUUAGUUA	0.00294 ± 0.0033
UCCUGGAUGAGCUUGCAUACAUUUUAGAAA	0.000459 ± 0.012
UCCUGGAUGUCCUUGCUUAGAAUUUAGUUA	0.00198 ± 0.0038
UCCUGCUACAGCUUGCAUAGAUAUUAGUAA	0.000202 ± 0.017
UCCUCCUACAGCUUGCAUAGUAAAUUCAAA	0.000994 ± 0.006
UCCUGCUACAGCUUGCAUAGUAUAUACAAA	0.0012 ± 0.0044
UCCUCCUACAGCUACGAUAGUAUUUUCAAA	0.000504 ± 0.0082

Sequence	pre-steady-state target cleavage rate
UCCUGGAUGAGCUUGCAUAGUUUUUACAAA	0.000802 ± 0.0084
UCCUGGAUGAGCUUGCAUAGAUUUUAGAAA	0.000414 ± 0.013
UCCUGGUACAGCUUCCAUAGUAAUUAGUUA	0.00123 ± 0.0065
UCCUGGAUGAGCUUGCAUGUAUUUAGUUA	0.00136 ± 0.0056
UCCUCCUACAGCUUGCAUAGAUAUUAGUUA	0.00145 ± 0.0045
UCCUGGUACAGCUUGCAUAAGUAUUUAGUUA	0.00316 ± 0.0037
UCCUCCUACAGCUUGGUAAGUAUUUUCAAA	0.000675 ± 0.0073
UCCUGGUACAGCUUGCAAUGUAUUUAGAAA	0.00113 ± 0.0057
UCCUGGAACACCUAGCAUAGUAUUUAGUUA	0.0025 ± 0.0039
UCCUGGAUGAGCUUGCAUUGUAUUUACAAA	0.00105 ± 0.0064
UCCUGGAACAGGUUGCAUAGUAUUUACAAA	0.00102 ± 0.004
UCCUGCUACAGCUUGCAUUCUAUUUACAAA	0.000733 ± 0.0066
UCCUGGAACAGCUUCGUUAGUAUUUAGUAA	0.00152 ± 0.0041
UCCUCCUACAGCAACCAUAGUAUUUACAAA	0.000219 ± 0.011
UCCUGGAUGUCGAAGCAUAUUAUUUAGUUA	0.00198 ± 0.0039
UCCUGGAUGAGCUUGCAUAGUAAAAAGUAA	0.0013 ± 0.0048
UCCUCCUACAGCUUGCAUAGUUAUUACAAA	0.000625 ± 0.0096
UCCUGGAUGUGCUUGCAUGUAUUUAGUUA	0.00161 ± 0.0044
UCCUGGAACAGCUUGCAAAGUAUUUUCAAA	0.000827 ± 0.0067

Tested on: MIWI (PIWIL1) piRISC loaded with L1MC piRNA (30 nt)
Assay: as above
Conditions: guide: L1MC piRNA 5'p-UAACUAAAUACUAUGCAAGCUGUAGGUCCU; auxiliary factor: 500 nM mouse GTSF1
Outline: as §1

Sequence	pre-steady-state target cleavage rate
UCCUGGAUGAGCUUGCAUAGUAUUUAUUUA	0.267 ± 0.055
UCCUGGAUGUCCUUGCUUAGAAUUUAGUUA	0.00139 ± 0.0083
UCCUGGAUGAGCUUGCAUAGUUUUUACAAA	0.00395 ± 0.0045
UCCUGGUACAGCUUGCAUAAGUAUUUAGUUA	0.00262 ± 0.0067
UCCUGGAUGAGCUUGCAUUGUAUUUACAAA	0.00257 ± 0.0048
UCCUGCUACAGCUUGCAUUCUAUUUACAAA	0.0158 ± 0.0068
UCCUGGAUGUGCUUGCAUGUAUUUAGUUA	0.00298 ± 0.005
UCCUGGAACAGCUUGCAAAGUAUUUUCAAA	0.0876 ± 0.018

Same assay, conditions: guide: L1MC piRNA 5'p-UAACUAAAUACUAUGCAAGCUGUAGGUCCU; auxiliary factor: none (no GTSF1)

Sequence	pre-steady-state target cleavage rate
UCCUCCUACAGCUUCGAUAGUAUUUUCAAA	0.000628 ± 0.0088
UCCUGGAUCAGCUUGCAUAGAUUUUACAAA	0.000995 ± 0.0055
UCCUGCUACAGCUUGCAUAGAUUUUAGAAA	0.00085 ± 0.0066
UCCUGGUACAGCUUGCAUACAAUUUACAAA	0.00108 ± 0.0074
UCCUCCUACAGCUUGCAUAGUAUUAAGAAA	0.00175 ± 0.0035
UCCUGGAUGUCGAUGCAUAAGUAUUUAGUUA	0.000649 ± 0.014
UCCUGGUACACGUUGCAUAGUAUUUAGAAA	0.00164 ± 0.0057
UCCUGGAUGACGAUGCAUAGUAUUUAGUUA	0.00288 ± 0.0029
UCCUGCUACAGCUUGCAUAGAAUUUUCAAA	0.00097 ± 0.0054
UCCUGGAUGAGCUUGCAUAGUAUUUAUUUA	0.025 ± 0.0077
UCCUGGUACAGCUUGCAUAGUAUUUAGCUA	0.00259 ± 0.0038
UCCUGGAUGAGCUUCCAUAGUAUUUAGAUA	0.000719 ± 0.011
UCCUGGUACAGCAAGCAUAGUAUUUUCAAA	0.000628 ± 0.015
UCCUCCUACAGCUUGCAUAGUAUUAGUUA	0.00133 ± 0.0043
UCCUGGAUGAGCUUGCAUACAUUUUAGAAA	0.000876 ± 0.0077
UCCUGGAUGUCCUUGCUUAGAAUUUAGUUA	0.000892 ± 0.0054
UCCUGCUACAGCUUGCAUAGAUAUUAGUAA	0.000193 ± 0.02
UCCUCCUACAGCUUGCAUAGUAAAUUCAAA	0.00025 ± 0.014
UCCUGCUACAGCUUGCAUAGUAUAUACAAA	0.000959 ± 0.0081
UCCUCCUACAGCUACGAUAGUAUUUUCAAA	0.000204 ± 0.017

Sequence	pre-steady-state target cleavage rate
UCCUGGAUGAGCUUGCAUAGUUUUUACAAA	0.000789 ± 0.0061
UCCUGGAUGAGCUUGCAUAGAUUUUAGAAA	0.00103 ± 0.0064
UCCUGGUACAGCUUCCAUAGUAAUUAGUUA	0.00107 ± 0.0066
UCCUGGAUGAGCUUGCAUGUAUUUAGUUA	0.000975 ± 0.004
UCCUCCUACAGCUUGCAUAGAUAUUAGUUA	0.00133 ± 0.0044
UCCUGGUACAGCUUGCAUAAGUAUUUAGUUA	0.00052 ± 0.01
UCCUCCUACAGCUUGGUAAGUAUUUUCAAA	0.000278 ± 0.01
UCCUGGUACAGCUUGCAAUGUAUUUAGAAA	0.00194 ± 0.0029
UCCUGGAACACCUAGCAUAGUAUUUAGUUA	0.0029 ± 0.0035
UCCUGGAUGAGCUUGCAUUGUAUUUACAAA	0.00172 ± 0.0043
UCCUGGAACAGGUUGCAUAGUAUUUACAAA	0.00147 ± 0.0038
UCCUGCUACAGCUUGCAUUCUAUUUACAAA	0.000635 ± 0.011
UCCUGGAACAGCUUCGUUAGUAUUUAGUAA	0.00134 ± 0.0049
UCCUCCUACAGCAACCAUAGUAUUUACAAA	0.00055 ± 0.0088
UCCUGGAUGUCGAAGCAUAUUAUUUAGUUA	0.000779 ± 0.0093
UCCUGGAUCAGCAACCAUAGUAUUUACAAA	0.000239 ± 0.019
UCCUGGAUGAGCUUGCAUAGUAAAAAGUAA	0.000326 ± 0.0094
UCCUCCUACAGCUUGCAUAGUUAUUACAAA	0.00101 ± 0.006
UCCUGGAUGUGCUUGCAUGUAUUUAGUUA	0.00149 ± 0.0053
UCCUGGAACAGCUUGCAAAGUAUUUUCAAA	0.00328 ± 0.002
